Reference: publication PMC11995678
Results are given in words; binding and its absence hold for the method and conditions named. Some results given as binding are weak or reduced against the parent protein; the word gives no strength.

T1: human LETM1 F-EF-hand domain, wild-type (residues 643-699), Ca2+-loaded (holo) (human) (UniProt O95202)
T1 sequence (chain, uniformly 15N-labeled): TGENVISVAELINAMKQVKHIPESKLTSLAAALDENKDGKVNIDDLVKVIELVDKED


Biological target: T1, human LETM1 F-EF-hand domain, wild-type (residues 643-699), Ca2+-loaded (holo) (human)
Test: NMR titration; 1H-15N HSQC of uniformly 15N-labeled holo WT LETM1 F-EF (~200 or ~110 uM) alone and mixed with excess unlabeled partner (1:2 to 1:3 molar ratio); 20 mM Tris pH 7.8, 50 mM NaCl, 30 mM CaCl2, 10 mM or 1.5 mM CHAPS, 35 °C; both purified

Row | binding | Binder
1 | binds weakly | human GHITM C-terminal domain construct (GHITM-CTD, residues 293-345) (domain or fragment, UniProt Q9H3K2 293-345) YDTQKVIKRAEVSPMYGVQKYDPINSMLSIYMDTLNIFMRVATMLATGGNRKK
2 | binds weakly | human LETM1 N-terminal domain construct (LETM1-NTD, residues 115-208) (domain or fragment, UniProt O95202-1 115-208) RDDSVVEKSLKSLKDKNKKLEEGGPVYSPPAEVVVKKSLGQRVLDELKHYYHGFRLLWIDTKIAARMLWRILNGHSLTRRERRQFLRICADLFR
